In publication PMC9551088 one finds binding data, which are given here for three substances.

Chains of the proteins cited; added tags and fusions are not shown.
UniProt Q8C6L5: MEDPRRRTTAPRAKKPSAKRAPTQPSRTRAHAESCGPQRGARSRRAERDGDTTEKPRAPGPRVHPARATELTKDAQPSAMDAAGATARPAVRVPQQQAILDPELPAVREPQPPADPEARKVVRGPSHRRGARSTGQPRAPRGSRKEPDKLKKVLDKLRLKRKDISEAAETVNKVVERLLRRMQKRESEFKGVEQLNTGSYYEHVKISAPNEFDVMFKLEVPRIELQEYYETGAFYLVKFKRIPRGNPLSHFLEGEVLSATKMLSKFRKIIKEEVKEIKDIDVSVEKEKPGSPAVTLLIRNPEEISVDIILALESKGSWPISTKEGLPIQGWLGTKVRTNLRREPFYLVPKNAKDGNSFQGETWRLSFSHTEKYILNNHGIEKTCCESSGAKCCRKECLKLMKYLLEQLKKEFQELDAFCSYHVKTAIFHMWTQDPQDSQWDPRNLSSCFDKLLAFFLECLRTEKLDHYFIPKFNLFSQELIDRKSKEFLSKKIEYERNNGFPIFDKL
UniProt Q9Y4X5: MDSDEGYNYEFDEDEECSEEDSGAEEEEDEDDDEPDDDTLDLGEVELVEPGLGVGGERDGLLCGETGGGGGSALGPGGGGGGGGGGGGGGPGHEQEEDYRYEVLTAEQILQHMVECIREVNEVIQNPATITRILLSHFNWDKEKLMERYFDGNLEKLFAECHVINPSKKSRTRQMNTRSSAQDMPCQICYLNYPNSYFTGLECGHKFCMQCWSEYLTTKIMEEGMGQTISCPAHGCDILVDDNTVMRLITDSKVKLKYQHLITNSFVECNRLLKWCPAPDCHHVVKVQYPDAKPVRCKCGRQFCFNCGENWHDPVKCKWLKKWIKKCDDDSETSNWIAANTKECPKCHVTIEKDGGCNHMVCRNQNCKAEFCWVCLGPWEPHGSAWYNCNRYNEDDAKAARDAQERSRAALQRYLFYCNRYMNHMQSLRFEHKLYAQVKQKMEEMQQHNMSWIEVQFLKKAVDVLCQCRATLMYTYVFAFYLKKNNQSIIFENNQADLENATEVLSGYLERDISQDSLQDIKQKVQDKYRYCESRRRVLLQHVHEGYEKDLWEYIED
UniProt Q9Z1K5: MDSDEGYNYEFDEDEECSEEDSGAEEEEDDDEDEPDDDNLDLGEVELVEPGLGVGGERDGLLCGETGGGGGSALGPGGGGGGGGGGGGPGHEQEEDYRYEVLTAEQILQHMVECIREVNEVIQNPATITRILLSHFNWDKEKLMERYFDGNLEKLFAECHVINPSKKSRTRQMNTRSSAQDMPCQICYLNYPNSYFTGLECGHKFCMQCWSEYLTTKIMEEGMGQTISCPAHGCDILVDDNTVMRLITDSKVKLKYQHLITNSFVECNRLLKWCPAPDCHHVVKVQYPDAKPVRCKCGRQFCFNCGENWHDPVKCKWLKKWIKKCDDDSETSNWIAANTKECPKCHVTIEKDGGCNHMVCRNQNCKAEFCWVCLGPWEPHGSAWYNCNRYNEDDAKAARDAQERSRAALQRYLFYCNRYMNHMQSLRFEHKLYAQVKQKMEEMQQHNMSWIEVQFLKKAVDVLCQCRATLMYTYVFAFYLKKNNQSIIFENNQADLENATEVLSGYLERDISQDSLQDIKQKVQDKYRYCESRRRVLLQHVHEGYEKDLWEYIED
UniProt Q7Z434: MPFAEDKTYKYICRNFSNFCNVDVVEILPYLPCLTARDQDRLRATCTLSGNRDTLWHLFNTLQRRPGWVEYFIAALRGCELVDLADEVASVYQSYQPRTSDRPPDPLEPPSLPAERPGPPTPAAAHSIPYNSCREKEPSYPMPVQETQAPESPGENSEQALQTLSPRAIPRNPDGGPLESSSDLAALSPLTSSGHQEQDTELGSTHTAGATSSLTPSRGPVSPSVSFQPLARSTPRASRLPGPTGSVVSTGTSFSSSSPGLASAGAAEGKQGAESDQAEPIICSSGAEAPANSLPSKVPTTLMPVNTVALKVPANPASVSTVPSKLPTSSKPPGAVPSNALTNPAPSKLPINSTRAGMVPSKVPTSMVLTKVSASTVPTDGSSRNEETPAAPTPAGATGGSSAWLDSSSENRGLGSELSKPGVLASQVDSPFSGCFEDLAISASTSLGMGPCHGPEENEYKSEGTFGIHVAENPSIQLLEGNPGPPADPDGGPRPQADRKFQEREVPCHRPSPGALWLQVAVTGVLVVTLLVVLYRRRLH
UniProt Q86WV6: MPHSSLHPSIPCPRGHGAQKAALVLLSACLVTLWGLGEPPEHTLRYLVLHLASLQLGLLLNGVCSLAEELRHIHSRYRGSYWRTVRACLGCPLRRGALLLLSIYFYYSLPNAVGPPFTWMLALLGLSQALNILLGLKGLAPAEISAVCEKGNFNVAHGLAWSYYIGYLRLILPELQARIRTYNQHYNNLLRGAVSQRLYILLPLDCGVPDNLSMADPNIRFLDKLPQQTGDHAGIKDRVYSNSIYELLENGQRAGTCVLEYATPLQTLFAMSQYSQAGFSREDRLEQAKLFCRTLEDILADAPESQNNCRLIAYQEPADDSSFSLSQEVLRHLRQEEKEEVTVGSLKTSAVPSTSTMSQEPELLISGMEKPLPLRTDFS

These are yes or no findings as the source states them, for the method shown. In cells and extracts the contact can be indirect. Some entries that bind do so weakly or less than the wild type.

Test [1] concerns the target cGAS (endogenous, murine MLFs and BMDCs) (mouse (endogenous in MLFs and BMDCs)) (UniProt Q8C6L5). The test can be described thus: co-IP.
Test [2] addresses FLAG-ARIH1 (human) (UniProt Q9Y4X5). The test can be described thus: co-IP.
Test [3] shares this target. In words: co-IP; HEK293 cells transfected for 24 h with FLAG- and HA-tagged plasmids; Nonidet P-40 lysis buffer (20 mM Tris-HCl pH 7.4-7.5, 150 mM NaCl, 1 mM EDTA, 1% NP-40); IP with anti-FLAG, blot with anti-HA.

With “ARIH1 (endogenous, murine MLFs and BMDCs) (from UniProt Q9Z1K5 1-555)”, the binding result in test [1] was “binds”.

For HA-MAVS (from UniProt Q7Z434 1-540), the binding result with FLAG-ARIH1 (human) [2] is “no binding”.

For the substance HA-MITA (from UniProt Q86WV6 1-379), the binding result with FLAG-ARIH1 (human) [3] is on record as “no binding”.
